± gives the standard deviation of the averaged measurements. The reference is the same well before dosing, and untreated signal decays as well.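 Fibroblast labels name human fibroblasts: mostly primary ones from tissues such as uterus (C12385, HUF), lung (H6013), bone (Hs27A), adrenal (HADF) and skin (WS1), plus mammary HMF and breast cancer-associated Hs343T. The cancer cells are basal-like or mesenchymal-like triple-negative breast cancer lines. The paper calls a changed response a hit when it shifts by more than 3x the replicate standard deviation. The tissue of the other fibroblasts is not given here.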
Test system: HCC1143
Test: relative JC-1 red fluorescence (viability) vs pre-drug, coculture with fibroblast (fraction); higher = more viable cancer cells
Method: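 JC-1 labelled TNBC cells cocultured 1:1 (1,500 cells each) with CellTrace Violet stained primary or stromal fibroblasts in 384-well plates in FluoroBrite medium, treated with one of 42 anticancer drugs at 0.1, 1, 10 or 100 uM. JC-1 red fluorescence (mitochondrial integrity in cancer cells only) was read by plate reader every 8 h for 72 h. Values are normalised to each well's pre-drug value. The stock of one drug was tenfold lower, so its dose labels may be too high.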

CCc1c2c(nc3ccc(OC(=O)N4CCC(N5CCCCC5)CC4)cc13)-c1cc3c(c(=O)n1C2)COC(=O)[C@]3(O)CC [Irinotecan]
relative JC-1 red fluorescence
Conditions	8 h	16 h	24 h	32 h	40 h	48 h	56 h	64 h	72 h
10 µM, coculture fibroblast: C12385	0.8555 ± 0.0072	0.788 ± 0.018	0.743 ± 0.021	0.692 ± 0.021	0.614 ± 0.025	0.573 ± 0.028	0.53 ± 0.033	0.482 ± 0.024	0.454 ± 0.019
10 µM, coculture fibroblast: H6013	0.758 ± 0.031	0.713 ± 0.026	0.681 ± 0.023	0.6684 ± 0.0061	0.625 ± 0.021	0.622 ± 0.022	0.596 ± 0.02	0.582 ± 0.021	0.547 ± 0.0099
10 µM, coculture fibroblast: H6019	0.8224 ± 0.00097	0.769 ± 0.012	0.734 ± 0.013	0.669 ± 0.026	0.632 ± 0.029	0.626 ± 0.03	0.59 ± 0.028	0.569 ± 0.025	0.54 ± 0.024
10 µM, coculture fibroblast: H6076	0.85 ± 0.021	0.808 ± 0.057	0.788 ± 0.06	0.787 ± 0.051	0.721 ± 0.058	0.725 ± 0.053	0.701 ± 0.048	0.688 ± 0.038	0.7 ± 0.032
10 µM, coculture fibroblast: H6231	0.856 ± 0.018	0.8574 ± 0.0064	0.783 ± 0.025	0.699 ± 0.05	0.708 ± 0.052	0.673 ± 0.066	0.633 ± 0.071	0.594 ± 0.074	0.566 ± 0.08
10 µM, coculture fibroblast: HADF	0.781 ± 0.013	0.714 ± 0.016	0.679 ± 0.012	0.6783 ± 0.002	0.583 ± 0.019	0.559 ± 0.021	0.526 ± 0.024	0.496 ± 0.026	0.4611 ± 0.0032
10 µM, coculture fibroblast: HCFa	0.813 ± 0.0086	0.742 ± 0.0091	0.701 ± 0.0091	0.673 ± 0.0072	0.5945 ± 0.0015	0.562 ± 0.008	0.509 ± 0.021	0.466 ± 0.025	0.43 ± 0.016
10 µM, coculture fibroblast: HCPF	0.8448 ± 0.0011	0.802 ± 0.038	0.775 ± 0.04	0.748 ± 0.033	0.696 ± 0.051	0.688 ± 0.054	0.649 ± 0.054	0.614 ± 0.058	0.614 ± 0.057
10 µM, coculture fibroblast: HHSteC	0.785 ± 0.02	0.704 ± 0.017	0.665 ± 0.017	0.629 ± 0.0066	0.555 ± 0.0065	0.52114 ± 0.00015	0.4713 ± 0.003	0.43479 ± 0.00032	0.3819 ± 0.0018
10 µM, coculture fibroblast: HMF	0.8294 ± 0.0073	0.8408 ± 0.0029	0.787 ± 0.0087	0.762 ± 0.024	0.7163 ± 0.0028	0.69407 ± 5.7e-05	0.669 ± 0.0068	0.634 ± 0.0096	0.622 ± 0.018
10 µM, coculture fibroblast: HPFa	0.9131 ± 0.0017	0.83 ± 0.016	0.812 ± 0.0096	0.725 ± 0.014	0.676 ± 0.014	0.643 ± 0.022	0.58 ± 0.026	0.534 ± 0.028	0.493 ± 0.036
10 µM, coculture fibroblast: HUF	0.897 ± 0.015	0.7991 ± 0.0061	0.7338 ± 0.0038	0.673 ± 0.013	0.614 ± 0.015	0.579 ± 0.019	0.5154 ± 0.0046	0.48185 ± 0.00023	0.455 ± 0.0056
10 µM, coculture fibroblast: Hs5	0.901 ± 0.028	0.862 ± 0.09	0.866 ± 0.12	0.9 ± 0.14	0.83 ± 0.17	0.825 ± 0.19	0.824 ± 0.2	0.824 ± 0.21	0.809 ± 0.15
10 µM, coculture fibroblast: Hs27A	0.798 ± 0.019	0.73 ± 0.024	0.719 ± 0.034	0.745 ± 0.04	0.641 ± 0.019	0.632 ± 0.018	0.605 ± 0.018	0.588 ± 0.018	0.5633 ± 0.0011
10 µM, coculture fibroblast: Hs343T	0.837 ± 0.023	0.834 ± 0.031	0.798 ± 0.022	0.7591 ± 0.0067	0.714 ± 0.038	0.699 ± 0.029	0.664 ± 0.0082	0.622 ± 0.016	0.599 ± 0.011
10 µM, coculture fibroblast: WS1	0.821 ± 0.011	0.762 ± 0.03	0.724 ± 0.031	0.654 ± 0.028	0.593 ± 0.036	0.562 ± 0.04	0.516 ± 0.05	0.479 ± 0.051	0.449 ± 0.047
100 µM, coculture fibroblast: C12385	0.885 ± 0.0026	0.8364 ± 0.0024	0.7623 ± 0.0076	0.683 ± 0.024	0.66 ± 0.034	0.65 ± 0.026	0.653 ± 0.01	0.64424 ± 4e-05	0.6454 ± 0.0064
100 µM, coculture fibroblast: H6013	0.8437 ± 0.0068	0.805 ± 0.0091	0.7669 ± 0.0035	0.7385 ± 0.0037	0.726 ± 0.013	0.761 ± 0.015	0.757 ± 0.011	0.7692 ± 0.0034	0.6937 ± 0.0066
100 µM, coculture fibroblast: H6019	0.881 ± 0.022	0.8229 ± 0.0025	0.7819 ± 0.0057	0.713 ± 0.0075	0.6724 ± 0.00071	0.6659 ± 0.0056	0.637 ± 0.019	0.622 ± 0.0065	0.622 ± 0.022
100 µM, coculture fibroblast: H6076	0.908 ± 0.013	0.8854 ± 0.0011	0.895 ± 0.024	0.853 ± 0.039	0.785 ± 0.017	0.773 ± 0.032	0.759 ± 0.019	0.754 ± 0.027	0.761 ± 0.025
100 µM, coculture fibroblast: H6231	0.902 ± 0.018	0.843 ± 0.12	0.878 ± 0.063	0.71 ± 0.015	0.668 ± 0.029	0.616 ± 0.021	0.579 ± 0.014	0.54 ± 0.012	0.53 ± 0.022
100 µM, coculture fibroblast: HADF	0.8131 ± 0.0012	0.781 ± 0.019	0.72 ± 0.058	0.697 ± 0.065	0.647 ± 0.072	0.658 ± 0.073	0.647 ± 0.073	0.639 ± 0.068	0.562 ± 0.08
100 µM, coculture fibroblast: HCFa	0.87 ± 0.023	0.801 ± 0.036	0.714 ± 0.035	0.694 ± 0.038	0.64 ± 0.05	0.636 ± 0.061	0.623 ± 0.067	0.621 ± 0.068	0.584 ± 0.076
100 µM, coculture fibroblast: HCPF	0.891 ± 0.011	0.938 ± 0.039	0.888 ± 0.068	0.768 ± 0.091	0.763 ± 0.11	0.745 ± 0.13	0.728 ± 0.15	0.706 ± 0.17	0.707 ± 0.18
100 µM, coculture fibroblast: HHSteC	0.903 ± 0.017	0.855 ± 0.018	0.752 ± 0.034	0.692 ± 0.039	0.635 ± 0.052	0.626 ± 0.048	0.578 ± 0.052	0.557 ± 0.05	0.479 ± 0.048
100 µM, coculture fibroblast: HMF	0.886 ± 0.013	0.938 ± 0.055	0.844 ± 0.052	0.738 ± 0.038	0.666 ± 0.09	0.629 ± 0.1	0.582 ± 0.093	0.546 ± 0.085	0.559 ± 0.094
100 µM, coculture fibroblast: HPFa	0.9165 ± 0.0018	0.8402 ± 0.0044	0.7527 ± 0.0075	0.625 ± 0.022	0.58 ± 0.022	0.58 ± 0.028	0.539 ± 0.019	0.532 ± 0.016	0.526 ± 0.015
100 µM, coculture fibroblast: HUF	0.871 ± 0.039	0.819 ± 0.061	0.731 ± 0.11	0.647 ± 0.11	0.602 ± 0.14	0.598 ± 0.13	0.565 ± 0.13	0.571 ± 0.14	0.556 ± 0.13
100 µM, coculture fibroblast: Hs5	0.9139 ± 0.0047	0.9 ± 0.025	0.861 ± 0.019	0.8541 ± 0.0071	0.77 ± 0.029	0.753 ± 0.034	0.734 ± 0.023	0.726 ± 0.033	0.7423 ± 0.0059
100 µM, coculture fibroblast: Hs27A	0.871 ± 0.038	0.868 ± 0.052	0.832 ± 0.068	0.852 ± 0.076	0.761 ± 0.1	0.815 ± 0.14	0.772 ± 0.15	0.754 ± 0.15	0.627 ± 0.14
100 µM, coculture fibroblast: Hs343T	0.905 ± 0.027	0.925 ± 0.024	0.877 ± 0.041	0.8 ± 0.082	0.728 ± 0.12	0.703 ± 0.14	0.683 ± 0.15	0.667 ± 0.17	0.664 ± 0.16
100 µM, coculture fibroblast: WS1	0.8531 ± 0.0066	0.77 ± 0.026	0.653 ± 0.025	0.57 ± 0.017	0.518 ± 0.016	0.504 ± 0.013	0.478 ± 0.015	0.475 ± 0.018	0.468 ± 0.031
